In article PMC11633478 one finds binding data, which are given here for seven substances.

No constants are given. Whether binding was seen depends on the method and setting. Binding seen in cells or lysates may run through a third protein. Binding can be weak; no strength is given. Tags and fused reporters may be left off the sequences shown.

Assay [1] concerns the target T1, human sterol regulatory element binding protein 1c (Flag-SREBP-1c) (human) (UniProt P36956).
T1 sequence: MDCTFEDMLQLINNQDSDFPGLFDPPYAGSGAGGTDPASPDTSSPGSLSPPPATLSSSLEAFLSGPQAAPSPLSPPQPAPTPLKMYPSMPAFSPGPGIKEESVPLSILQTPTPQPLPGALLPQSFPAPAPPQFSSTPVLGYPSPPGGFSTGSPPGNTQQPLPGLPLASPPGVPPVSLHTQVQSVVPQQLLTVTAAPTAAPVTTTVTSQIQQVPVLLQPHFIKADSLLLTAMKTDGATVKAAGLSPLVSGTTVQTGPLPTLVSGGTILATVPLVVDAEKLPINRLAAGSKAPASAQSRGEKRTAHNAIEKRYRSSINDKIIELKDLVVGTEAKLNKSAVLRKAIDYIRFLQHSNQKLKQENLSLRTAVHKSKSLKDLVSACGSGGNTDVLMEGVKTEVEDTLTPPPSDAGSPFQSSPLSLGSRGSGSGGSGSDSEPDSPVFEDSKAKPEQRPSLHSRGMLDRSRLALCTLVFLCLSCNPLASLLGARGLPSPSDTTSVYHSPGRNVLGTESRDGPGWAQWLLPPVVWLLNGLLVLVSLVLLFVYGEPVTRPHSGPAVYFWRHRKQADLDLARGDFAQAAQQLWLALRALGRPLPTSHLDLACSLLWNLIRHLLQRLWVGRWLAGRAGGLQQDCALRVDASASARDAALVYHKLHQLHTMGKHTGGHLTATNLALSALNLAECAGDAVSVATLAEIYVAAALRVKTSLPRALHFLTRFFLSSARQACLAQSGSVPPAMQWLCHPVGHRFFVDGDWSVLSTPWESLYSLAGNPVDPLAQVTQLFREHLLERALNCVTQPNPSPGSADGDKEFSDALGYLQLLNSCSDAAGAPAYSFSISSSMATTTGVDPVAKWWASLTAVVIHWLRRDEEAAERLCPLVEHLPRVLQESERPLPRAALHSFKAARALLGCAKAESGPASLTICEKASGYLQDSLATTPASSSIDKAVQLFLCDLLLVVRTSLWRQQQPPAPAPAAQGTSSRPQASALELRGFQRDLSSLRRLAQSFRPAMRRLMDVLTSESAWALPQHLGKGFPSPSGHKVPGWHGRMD
Description: co-IP; HEK 293T cells co-transfected with Flag-SREBP-1c and Myc-GK plasmids, 48 h; cell lysates incubated with antibodies against Myc or Flag overnight at 4 °C, protein A/G magnetic beads 2 h at 4 °C, washed with TBST; Western blot against Myc or Flag.

Assay [2] addresses T1, human sterol regulatory element binding protein 1c (Flag-SREBP-1c) (human). Description: co-IP; as a1, but on the nuclei of co-transfected HEK 293T cells (Nuclear and Cytoplasmic Protein Extraction Kit).
Assay [3] has the same target. Description: co-IP; as a1, but on the cytoplasm of co-transfected HEK 293T cells (Nuclear and Cytoplasmic Protein Extraction Kit).
Assay [4] addresses T2, mouse sterol regulatory element binding protein 1c (Flag-Srebp-1c) (mouse) (UniProt Q9WTN3).
T2 sequence: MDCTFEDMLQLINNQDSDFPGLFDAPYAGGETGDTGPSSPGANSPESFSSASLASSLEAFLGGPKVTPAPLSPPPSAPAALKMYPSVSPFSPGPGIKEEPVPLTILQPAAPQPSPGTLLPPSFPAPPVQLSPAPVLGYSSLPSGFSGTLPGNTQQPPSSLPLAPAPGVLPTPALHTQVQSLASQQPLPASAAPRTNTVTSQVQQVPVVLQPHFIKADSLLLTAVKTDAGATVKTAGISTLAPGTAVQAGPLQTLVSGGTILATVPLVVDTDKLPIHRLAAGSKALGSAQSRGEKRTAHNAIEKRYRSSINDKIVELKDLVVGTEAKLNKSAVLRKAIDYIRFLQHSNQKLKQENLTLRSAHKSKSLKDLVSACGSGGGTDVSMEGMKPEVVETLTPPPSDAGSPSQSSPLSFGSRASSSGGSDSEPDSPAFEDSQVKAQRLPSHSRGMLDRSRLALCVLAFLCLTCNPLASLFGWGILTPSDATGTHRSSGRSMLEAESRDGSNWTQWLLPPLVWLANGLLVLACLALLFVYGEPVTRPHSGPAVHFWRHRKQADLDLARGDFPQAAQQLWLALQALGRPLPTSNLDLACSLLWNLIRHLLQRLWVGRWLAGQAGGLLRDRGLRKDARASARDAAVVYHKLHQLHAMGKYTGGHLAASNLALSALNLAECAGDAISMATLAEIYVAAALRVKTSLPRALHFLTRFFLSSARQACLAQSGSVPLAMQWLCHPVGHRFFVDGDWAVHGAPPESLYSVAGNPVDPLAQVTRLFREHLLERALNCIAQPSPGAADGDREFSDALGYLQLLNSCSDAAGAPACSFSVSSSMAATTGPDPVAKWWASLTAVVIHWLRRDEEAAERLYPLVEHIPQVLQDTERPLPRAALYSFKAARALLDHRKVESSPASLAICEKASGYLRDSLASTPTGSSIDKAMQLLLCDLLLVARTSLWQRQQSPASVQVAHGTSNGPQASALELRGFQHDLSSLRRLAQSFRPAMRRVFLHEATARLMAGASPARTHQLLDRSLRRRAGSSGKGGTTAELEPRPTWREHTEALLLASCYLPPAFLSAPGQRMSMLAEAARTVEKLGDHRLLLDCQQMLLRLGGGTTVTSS
Description: co-IP; HEK 293T cells co-transfected with Flag-SREBP-1c and Myc-GK plasmids, 48 h; cell lysates incubated with antibodies against Myc or Flag overnight at 4 °C, protein A/G magnetic beads 2 h at 4 °C, washed with TBST; Western blot against Myc or Flag. In general terms: In western blotting, separated proteins are transferred to a membrane and probed.

For human GK(D198G) (enzyme), in assay [1], the binding entry is on record as “binds”. Regarding human GK(C256R) (enzyme), in assay [1], the binding result is “binds”. “full-length human glycerol kinase (Myc-GK) (enzyme)”: the binding result in assay [1], in assay [2] and in assay [3] was “binds” in each case.

With “C-terminal fragment of human GK (amino acids 272-524, GK-C) (domain or fragment)”, in assay [1], the binding entry is “binds”. Still for that read-out and setting: with “N-terminal fragment of human GK (amino acids 1-271, GK-N) (domain or fragment)” the entry was “binds”. Regarding human GK(N288D) (enzyme), the binding entry in assay [1] is listed as “binds”. Consider “mouse glycerol kinase (Myc-Gk) (from UniProt Q64516-1) (enzyme)”, for which the binding entry in assay [4] was “binds”.
